# Measurements reported in US20240299519A1.
# Results are given in words; binding and its absence hold for the method and conditions named. Some entries that bind do so weakly or less than the wild type.
# T1: CD99 antigen (Origene, Sku #TP304058) (UniProt P14209)
# T1 sequence (looked up): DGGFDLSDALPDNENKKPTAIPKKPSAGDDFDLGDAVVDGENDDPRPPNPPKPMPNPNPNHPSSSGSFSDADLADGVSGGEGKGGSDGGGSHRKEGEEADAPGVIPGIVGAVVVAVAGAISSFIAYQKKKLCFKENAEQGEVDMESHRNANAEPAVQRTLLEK
# Target: T1, CD99 antigen (Origene, Sku #TP304058)
# Test: hybridoma screening, assay not given
row,binding,Binder
1,binds,"antibody of hybridoma clone 4C5E2 (antibody, V domains shown) VH: EVQLEESGGGLVQPKGSLKLSCAASGFTFNTYAMYWVCQAPGKGLKWVARIRSKVNNYATYYADSVKDRFTISRDDSQNMLFLHMNNLKTEDTAIYFCVRDPMDYWGQGISVTVSS VL: DIVMTQAAPSVPVTPGESVSISCGSSKSLLHSNGNTYLYWFLQRPGQSPQLLIYRVSNLASGVPDRFSGSGSGTAFTLRISRVEAEDVGVYYCMQHLEYPYTFGGGTRLEIK"
2,binds,"antibody of hybridoma clone 4C5H10 (antibody, V domains shown) VH: EVQLVESGGGLVQPKGSLKLSCAASGFTFNTYAMYWVCQAPGKGLKWVARIRSKVNNYATYYADSVKDRFTISRDDSQNMLFLHMNNLKTEDTAIYFCVRDPMDYWGQGISVTVSS VL: DIVMTQAAPSVPVTPGESVSISCGSSKSLLHSNGNTYLYWFLQRPGQSPQLLIYRVSNLASGVPDRFSGSGSGTAFTLRISRVEAEDVGVYYCMQHLEYPYTFGGGTRLEIK"
